Assay results taken from patent publication US8933245B2, “Preservation of ergothioneine” (ELC Management LLC, priority 2009, dated 2015).

Columns and labels:
[1] = Preventing trimethylamine odor by addition of compounds before heating ergothioneine with sodium hydroxide; format: physicochemical; settings: scale 0 (no odor) to 3 (strong fishy trimethylamine odor), three testers averaged
Experimental: Samples were prepared in glass tubes with screw caps with about 0.05% (w/v) ergothioneine in water, a test sample, at the indicated concentration, and 0.1N NaOH (except for the first tube, in which NaOH was omitted as a negative control). The pH of each sample was determined by litmus paper, and then the tubes capped and placed in a boiling water bath for 10 minutes. The tubes were then cooled to room temperature, and then each one was uncapped and smelled by three testers, each of whom scored the odor. The scores were converted to a scale of 0 (no odor) to 3 (strong fishy trimethylamine odor) and then averaged.

[2] = Formation of fishy amine odor by boiling ergothioneine with sodium hydroxide or other components; format: physicochemical
Experimental: This became the assay system used to test agents and procedures for reduction or prevention of the odor.
Four samples of a 5 ml ergothioneine solution at 0.1% (w/v) were prepared in glass test tubes with screw caps. To the first was added 5 ml of water, to the second 5 ml of 0.2% (w/v) sodium metabisulfite, to the third 4 ml of water and 1 ml of 1N sodium hydroxide, and to the fourth 5 ml of 0.2% (w/v) citric acid. […] The samples were boiled for 10 minutes and each one was smelled.
This allowed the testing of methods to inhibit the formation of the odor and to suppress the odor after formation.

[3] = test sample 0.01% added before boiling
[4] = test sample 0.05% added before boiling
[5] = test sample 0.2% added before boiling
[6] = 5 ml 0.1% ergothioneine plus 5 ml addition (0.2% sodium metabisulfite; 4 ml water + 1 ml 1N sodium hydroxide; 0.2% citric acid), boiled 10 minutes

SMILES | Odor [1, 3] | Odor [1, 4] | Odor [1, 5] | odor after boiling [2, 6] | odor after boiling ([2]; 2 mM (0.046%) ergothioneine boiled with 0.1 N NaOH (pH 11.5) for 10 minutes) | Odor ([1]; test sample 0.0001% added before boiling)
O=C(O)CC(O)(CC(=O)O)C(=O)O [citric acid] | 2.33 | 2.00 | 0.00 | None of the other tubes had this odor | – | –
C[N+](C)(C)[C@@H](Cc1c[nH]c(=S)[nH]1)C(=O)[O-] [ergothioneine] | – | – | – | – | fishy, amine odor | –
O=P(O)(O)O [phosphoric acid] | 1.33 | 0.33 | 0.00 | – | – | –
O=C1O[C@H]([C@@H](O)CO)C(O)=C1O [ascorbic acid] | 1.33 | 1.67 | 0.00 | – | – | –
O=S([O-])S(=O)(=O)[O-].[Na+].[Na+] [sodium metabisulfite] | 1.67 | 1.00 | 0.00 | None of the other tubes had this odor | – | –
OB(O)O [boric acid] | 1.33 | 1.33 | 0.00 | – | – | –
[Na+].[OH-] [sodium hydroxide] | – | – | – | had the fishy, amine odor | – | –
Cl [Hydrochloric acid] | 0.67 | – | – | – | – | 0.67
